Data as given in the supplement of paper PMC12819154, “High-throughput peptide-centric local stability assay extends protein–ligand identification to membrane proteins, tissues and bacteria” (Nature Structural & Molecular Biology, 2025).
Some of the results follow. Most entries show no effect beyond the scatter of the controls.

Amino acid sequences for entries named in this document (tags omitted). A change or cut given only in a name is not applied to a line headed by its entry.
UniProt Q86W54: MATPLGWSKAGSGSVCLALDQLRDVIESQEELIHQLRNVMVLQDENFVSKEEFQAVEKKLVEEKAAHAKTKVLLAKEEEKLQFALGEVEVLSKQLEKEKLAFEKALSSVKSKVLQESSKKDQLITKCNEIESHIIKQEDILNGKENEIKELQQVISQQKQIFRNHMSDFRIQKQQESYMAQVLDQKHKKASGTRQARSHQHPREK
UniProt Q8N201, whole entry: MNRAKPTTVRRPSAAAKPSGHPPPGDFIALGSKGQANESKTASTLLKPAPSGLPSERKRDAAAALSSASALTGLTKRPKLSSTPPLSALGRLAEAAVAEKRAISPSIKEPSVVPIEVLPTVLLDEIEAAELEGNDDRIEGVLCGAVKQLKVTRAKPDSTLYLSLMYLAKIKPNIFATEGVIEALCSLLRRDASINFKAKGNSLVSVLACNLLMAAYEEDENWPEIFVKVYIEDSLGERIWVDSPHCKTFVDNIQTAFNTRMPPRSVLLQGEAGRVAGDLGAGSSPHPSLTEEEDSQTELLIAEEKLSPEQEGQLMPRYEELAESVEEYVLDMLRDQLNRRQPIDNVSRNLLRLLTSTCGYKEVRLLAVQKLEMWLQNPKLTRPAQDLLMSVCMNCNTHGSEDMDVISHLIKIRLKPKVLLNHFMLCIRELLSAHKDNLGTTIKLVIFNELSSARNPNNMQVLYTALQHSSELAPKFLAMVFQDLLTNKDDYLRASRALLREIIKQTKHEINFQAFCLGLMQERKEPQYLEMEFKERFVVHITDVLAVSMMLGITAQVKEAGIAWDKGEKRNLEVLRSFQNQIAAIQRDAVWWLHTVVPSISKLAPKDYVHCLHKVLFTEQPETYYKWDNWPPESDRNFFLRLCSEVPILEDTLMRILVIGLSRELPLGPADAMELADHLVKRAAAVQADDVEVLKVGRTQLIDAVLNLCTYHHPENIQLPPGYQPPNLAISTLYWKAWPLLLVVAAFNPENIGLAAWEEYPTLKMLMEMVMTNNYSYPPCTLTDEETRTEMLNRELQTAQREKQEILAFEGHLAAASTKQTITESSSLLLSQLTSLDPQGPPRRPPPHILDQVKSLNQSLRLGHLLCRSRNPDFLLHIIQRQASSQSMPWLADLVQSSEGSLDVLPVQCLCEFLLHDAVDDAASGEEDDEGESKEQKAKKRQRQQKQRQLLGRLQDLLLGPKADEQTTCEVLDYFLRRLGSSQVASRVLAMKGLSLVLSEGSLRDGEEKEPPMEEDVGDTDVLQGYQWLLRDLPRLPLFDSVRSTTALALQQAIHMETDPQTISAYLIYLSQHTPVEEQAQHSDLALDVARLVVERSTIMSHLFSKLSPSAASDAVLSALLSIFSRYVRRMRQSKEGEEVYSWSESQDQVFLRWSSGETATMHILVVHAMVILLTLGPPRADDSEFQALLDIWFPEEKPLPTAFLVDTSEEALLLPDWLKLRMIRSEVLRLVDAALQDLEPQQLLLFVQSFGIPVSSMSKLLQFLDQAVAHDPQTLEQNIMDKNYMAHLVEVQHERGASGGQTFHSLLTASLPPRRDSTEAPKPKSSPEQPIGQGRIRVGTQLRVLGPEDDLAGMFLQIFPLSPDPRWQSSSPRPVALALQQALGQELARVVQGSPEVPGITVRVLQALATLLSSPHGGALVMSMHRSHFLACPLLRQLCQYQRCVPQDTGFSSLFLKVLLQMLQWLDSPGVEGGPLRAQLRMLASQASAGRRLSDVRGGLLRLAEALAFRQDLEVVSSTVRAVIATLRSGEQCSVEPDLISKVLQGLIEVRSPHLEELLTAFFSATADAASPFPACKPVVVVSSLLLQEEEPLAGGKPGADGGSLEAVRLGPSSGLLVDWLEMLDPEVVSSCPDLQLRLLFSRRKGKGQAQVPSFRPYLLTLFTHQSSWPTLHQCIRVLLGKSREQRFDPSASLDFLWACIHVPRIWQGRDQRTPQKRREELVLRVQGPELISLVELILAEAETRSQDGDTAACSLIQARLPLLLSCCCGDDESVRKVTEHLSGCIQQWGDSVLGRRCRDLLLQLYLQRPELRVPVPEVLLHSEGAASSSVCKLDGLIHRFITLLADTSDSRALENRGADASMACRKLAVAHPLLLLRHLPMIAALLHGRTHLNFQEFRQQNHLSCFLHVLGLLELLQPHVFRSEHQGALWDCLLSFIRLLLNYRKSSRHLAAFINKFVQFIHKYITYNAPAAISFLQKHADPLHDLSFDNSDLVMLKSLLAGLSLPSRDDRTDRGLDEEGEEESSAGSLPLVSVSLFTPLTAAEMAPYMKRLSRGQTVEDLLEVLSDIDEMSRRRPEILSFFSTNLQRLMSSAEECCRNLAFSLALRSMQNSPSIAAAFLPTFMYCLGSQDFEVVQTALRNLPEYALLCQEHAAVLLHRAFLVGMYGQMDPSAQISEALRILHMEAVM
UniProt Q8IV50: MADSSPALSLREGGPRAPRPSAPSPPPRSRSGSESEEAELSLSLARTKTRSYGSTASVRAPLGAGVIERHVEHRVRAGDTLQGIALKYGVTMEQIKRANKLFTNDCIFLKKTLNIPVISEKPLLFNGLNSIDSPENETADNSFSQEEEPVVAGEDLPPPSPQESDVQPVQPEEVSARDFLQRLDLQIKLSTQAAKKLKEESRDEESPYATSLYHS
UniProt Q8N1G2: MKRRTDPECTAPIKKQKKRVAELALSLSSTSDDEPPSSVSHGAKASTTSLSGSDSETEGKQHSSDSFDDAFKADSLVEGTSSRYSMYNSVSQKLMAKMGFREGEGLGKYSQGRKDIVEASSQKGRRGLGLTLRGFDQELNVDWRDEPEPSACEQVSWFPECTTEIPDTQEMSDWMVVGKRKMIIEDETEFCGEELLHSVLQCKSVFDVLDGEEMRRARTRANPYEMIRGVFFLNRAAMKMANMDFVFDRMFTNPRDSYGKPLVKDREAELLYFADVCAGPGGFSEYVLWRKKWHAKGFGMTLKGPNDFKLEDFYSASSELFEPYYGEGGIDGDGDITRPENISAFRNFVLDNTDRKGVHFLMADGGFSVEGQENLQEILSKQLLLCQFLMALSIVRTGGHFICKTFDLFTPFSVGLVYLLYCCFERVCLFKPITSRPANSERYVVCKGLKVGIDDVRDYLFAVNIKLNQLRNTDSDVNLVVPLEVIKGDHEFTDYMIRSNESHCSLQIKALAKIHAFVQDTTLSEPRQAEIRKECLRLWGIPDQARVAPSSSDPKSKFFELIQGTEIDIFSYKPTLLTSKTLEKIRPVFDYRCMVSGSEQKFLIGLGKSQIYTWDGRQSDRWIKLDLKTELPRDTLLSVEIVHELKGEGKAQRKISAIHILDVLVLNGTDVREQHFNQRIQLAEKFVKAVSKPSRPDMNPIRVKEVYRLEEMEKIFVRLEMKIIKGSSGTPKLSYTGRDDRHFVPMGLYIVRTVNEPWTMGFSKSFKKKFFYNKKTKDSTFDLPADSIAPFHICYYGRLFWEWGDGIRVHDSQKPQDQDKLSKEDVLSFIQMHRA
UniProt Q86XF0: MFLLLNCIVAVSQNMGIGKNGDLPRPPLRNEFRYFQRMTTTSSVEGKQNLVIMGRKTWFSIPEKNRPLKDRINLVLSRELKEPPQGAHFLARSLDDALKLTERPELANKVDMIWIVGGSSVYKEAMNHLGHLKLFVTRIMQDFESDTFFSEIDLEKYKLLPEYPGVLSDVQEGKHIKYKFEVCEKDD
UniProt Q86Y07: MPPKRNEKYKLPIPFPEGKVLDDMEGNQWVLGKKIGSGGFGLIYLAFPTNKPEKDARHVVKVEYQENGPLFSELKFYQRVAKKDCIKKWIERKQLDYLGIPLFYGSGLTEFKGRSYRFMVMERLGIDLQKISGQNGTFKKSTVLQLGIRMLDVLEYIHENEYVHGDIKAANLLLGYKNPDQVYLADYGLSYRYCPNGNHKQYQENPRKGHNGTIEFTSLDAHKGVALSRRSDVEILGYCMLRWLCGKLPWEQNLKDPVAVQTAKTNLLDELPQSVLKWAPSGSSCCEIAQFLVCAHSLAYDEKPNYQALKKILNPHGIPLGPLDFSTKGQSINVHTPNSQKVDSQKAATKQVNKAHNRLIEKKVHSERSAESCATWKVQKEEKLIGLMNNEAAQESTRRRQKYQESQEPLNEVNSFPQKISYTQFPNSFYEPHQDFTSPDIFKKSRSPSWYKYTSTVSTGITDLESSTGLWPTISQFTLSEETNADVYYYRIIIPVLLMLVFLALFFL
UniProt Q8IZ73: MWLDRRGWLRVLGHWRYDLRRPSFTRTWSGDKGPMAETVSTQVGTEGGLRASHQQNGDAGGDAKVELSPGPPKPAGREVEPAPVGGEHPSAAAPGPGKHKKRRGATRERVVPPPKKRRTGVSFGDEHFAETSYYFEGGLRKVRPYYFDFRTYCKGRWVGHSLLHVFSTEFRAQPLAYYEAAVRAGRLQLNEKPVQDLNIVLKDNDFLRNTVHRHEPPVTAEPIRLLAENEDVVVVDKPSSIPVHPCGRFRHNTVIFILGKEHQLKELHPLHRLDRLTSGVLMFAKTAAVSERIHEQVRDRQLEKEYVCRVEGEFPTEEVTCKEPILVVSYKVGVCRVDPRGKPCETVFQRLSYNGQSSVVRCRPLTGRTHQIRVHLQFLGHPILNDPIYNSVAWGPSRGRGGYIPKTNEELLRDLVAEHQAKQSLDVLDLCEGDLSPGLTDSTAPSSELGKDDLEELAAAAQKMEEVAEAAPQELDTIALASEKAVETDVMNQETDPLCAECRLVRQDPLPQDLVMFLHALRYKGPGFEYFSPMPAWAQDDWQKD
UniProt Q8IZQ8: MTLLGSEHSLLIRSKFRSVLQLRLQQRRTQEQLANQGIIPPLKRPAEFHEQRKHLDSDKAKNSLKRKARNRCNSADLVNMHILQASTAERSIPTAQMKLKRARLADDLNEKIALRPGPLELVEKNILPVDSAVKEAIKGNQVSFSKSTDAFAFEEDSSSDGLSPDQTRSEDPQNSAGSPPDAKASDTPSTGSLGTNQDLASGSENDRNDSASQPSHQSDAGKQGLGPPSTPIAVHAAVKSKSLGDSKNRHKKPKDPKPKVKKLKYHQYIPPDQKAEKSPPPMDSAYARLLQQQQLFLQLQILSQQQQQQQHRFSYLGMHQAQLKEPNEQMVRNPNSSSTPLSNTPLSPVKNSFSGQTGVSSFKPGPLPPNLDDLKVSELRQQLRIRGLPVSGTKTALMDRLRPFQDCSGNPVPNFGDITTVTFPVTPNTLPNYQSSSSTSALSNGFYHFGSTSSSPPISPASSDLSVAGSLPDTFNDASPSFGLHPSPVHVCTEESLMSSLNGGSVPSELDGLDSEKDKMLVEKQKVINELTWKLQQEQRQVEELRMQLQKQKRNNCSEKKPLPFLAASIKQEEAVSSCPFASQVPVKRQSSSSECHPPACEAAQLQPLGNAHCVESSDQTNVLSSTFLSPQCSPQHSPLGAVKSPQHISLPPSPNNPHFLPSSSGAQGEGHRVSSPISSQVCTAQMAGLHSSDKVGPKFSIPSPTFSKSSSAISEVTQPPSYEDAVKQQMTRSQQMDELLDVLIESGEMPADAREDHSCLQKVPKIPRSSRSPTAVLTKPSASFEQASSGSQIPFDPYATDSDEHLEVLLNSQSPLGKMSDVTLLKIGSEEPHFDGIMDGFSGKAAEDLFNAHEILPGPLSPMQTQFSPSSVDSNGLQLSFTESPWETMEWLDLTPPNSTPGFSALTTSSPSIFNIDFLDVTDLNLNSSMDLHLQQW
UniProt Q8IWZ8: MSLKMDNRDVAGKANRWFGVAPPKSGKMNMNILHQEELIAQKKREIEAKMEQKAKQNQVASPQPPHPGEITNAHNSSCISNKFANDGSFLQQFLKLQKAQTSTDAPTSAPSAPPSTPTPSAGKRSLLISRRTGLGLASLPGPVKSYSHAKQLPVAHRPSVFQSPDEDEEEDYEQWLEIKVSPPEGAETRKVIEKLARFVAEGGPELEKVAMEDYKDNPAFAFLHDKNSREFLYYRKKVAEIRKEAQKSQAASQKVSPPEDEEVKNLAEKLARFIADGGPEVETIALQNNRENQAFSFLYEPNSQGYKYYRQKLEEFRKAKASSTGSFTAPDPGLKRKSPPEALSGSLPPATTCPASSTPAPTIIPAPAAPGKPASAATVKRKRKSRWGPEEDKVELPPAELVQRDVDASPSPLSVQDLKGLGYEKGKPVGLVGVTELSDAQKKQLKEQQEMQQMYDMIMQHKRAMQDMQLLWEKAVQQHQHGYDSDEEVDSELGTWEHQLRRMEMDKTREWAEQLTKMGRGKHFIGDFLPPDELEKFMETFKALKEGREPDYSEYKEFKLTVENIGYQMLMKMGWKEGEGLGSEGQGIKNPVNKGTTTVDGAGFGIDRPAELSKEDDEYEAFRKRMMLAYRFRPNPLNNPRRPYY

compound: CN[C@@H]1C[C@H]2O[C@@](C)([C@@H]1OC)n1c3ccccc3c3c4c(c5c6ccccc6n2c5c31)C(=O)NC4 [staurosporine]; assay: log2 fold change of tryptic peptide abundance, ligand vs vehicle (limited proteolysis) (log2 ratio); higher = more trypsin-susceptible (destabilized); conditions: ligand concentration: 20 uM; sample: K562 cleared lysate; digestion: 4 min, 22 C (HT-PELSA RT4min, Orbitrap Astral)

Row | Target | log2 fold change
1 | UniProt Q86W54 (peptide sequence: DVIESQEELIHQLR, peptide start residue: 24) | -0.732
2 | INTS1 (peptide sequence: NYMAHLVEVQHER, peptide start residue: 1284) (UniProt Q8N201) | 0.541
3 | KBTBD2 (peptide sequence: KINAENCVR, peptide start residue: 127) (UniProt Q8IY47) | 0.475
4 | LYSMD2 (peptide sequence: LFTNDCIFLKK, peptide start residue: 101) (UniProt Q8IV50) | -0.0808
5 | UniProt Q8N1G2 (peptide sequence: DIVEASSQK, peptide start residue: 115) | -0.181
6 | UniProt Q86XF0 (peptide sequence: TWFSIPEK, peptide start residue: 57) | 0.238
7 | VRK2 (peptide sequence: KGHNGTIEFTSLDAHK, peptide start residue: 208) (UniProt Q86Y07) | 0.629
8 | RPUSD2 (peptide sequence: VELSPGPPKPAGR, peptide start residue: 65) (UniProt Q8IZ73) | -0.0892
9 | ARID3B (peptide sequence: QPHLAPLQMDAR, peptide start residue: 17) (UniProt Q8IVW6) | 0.147
10 | UniProt Q8IZQ8 (peptide sequence: YHQYIPPDQK, peptide start residue: 294) | -0.304
11 | UniProt Q8IWZ8 (peptide sequence: EGREPDYSEYKEFK, peptide start residue: 546) | -0.294

Copied from the list.
Value of RPUSD2 (peptide sequence: VELSPGPPKPAGR, peptide start residue: 65) (UniProt Q8IZ73) under log2 fold change: -0.0892
Value of UniProt Q8N1G2 (peptide sequence: DIVEASSQK, peptide start residue: 115) under log2 fold change: -0.181
